Source: article PMC8556400
These are yes or no findings as the source states them, for the method shown. In cells and extracts the contact can be indirect. A yes stands for co-enrichment or nearness to the bait. Other partners may have been found.

Sequences of proteins named here, by UniProt entry; tags and fusion partners are left off.
UniProt Q8K310: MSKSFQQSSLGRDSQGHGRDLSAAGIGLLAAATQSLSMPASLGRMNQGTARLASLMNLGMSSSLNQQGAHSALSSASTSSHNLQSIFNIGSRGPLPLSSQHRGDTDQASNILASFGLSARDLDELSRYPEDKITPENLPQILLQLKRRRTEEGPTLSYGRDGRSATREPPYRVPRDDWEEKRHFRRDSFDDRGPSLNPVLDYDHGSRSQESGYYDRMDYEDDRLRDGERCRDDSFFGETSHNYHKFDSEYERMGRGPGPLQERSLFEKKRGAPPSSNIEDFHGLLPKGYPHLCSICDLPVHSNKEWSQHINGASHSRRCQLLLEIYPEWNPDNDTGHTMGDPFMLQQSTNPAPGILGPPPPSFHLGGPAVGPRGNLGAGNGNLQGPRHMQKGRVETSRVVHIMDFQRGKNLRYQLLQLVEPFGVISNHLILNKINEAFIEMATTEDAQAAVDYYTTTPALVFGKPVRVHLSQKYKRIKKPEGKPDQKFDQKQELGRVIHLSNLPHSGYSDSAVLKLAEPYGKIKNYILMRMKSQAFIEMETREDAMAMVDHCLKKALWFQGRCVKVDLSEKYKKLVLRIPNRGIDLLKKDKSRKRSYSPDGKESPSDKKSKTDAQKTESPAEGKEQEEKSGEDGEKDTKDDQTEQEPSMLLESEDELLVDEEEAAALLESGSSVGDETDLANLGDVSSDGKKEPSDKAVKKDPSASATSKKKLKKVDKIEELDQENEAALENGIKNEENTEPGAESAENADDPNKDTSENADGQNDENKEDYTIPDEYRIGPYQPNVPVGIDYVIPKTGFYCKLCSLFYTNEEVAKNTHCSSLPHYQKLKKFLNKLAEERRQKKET
UniProt P23198: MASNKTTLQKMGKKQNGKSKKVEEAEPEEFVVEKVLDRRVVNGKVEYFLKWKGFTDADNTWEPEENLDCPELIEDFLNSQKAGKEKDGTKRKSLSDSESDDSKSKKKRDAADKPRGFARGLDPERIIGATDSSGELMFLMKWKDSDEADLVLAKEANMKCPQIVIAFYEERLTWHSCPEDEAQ

Biological target: FlagBio-tagged Matr3 (biotinylated Matrin-3) (UniProt Q8K310)
Assay: affinity purification with mass spectrometry; biotinylated FlagBio-Matr3 recovered with streptavidin magnetic beads from MEL cells expressing BirA; cells expressing only BirA as control; co-eluted proteins separated by SDS-PAGE, in-gel trypsin digestion, LC-MS/MS

| binding | Molecule |
| --- | --- |
| binds | Cbx3 (heterochromatin protein 1γ) (from UniProt P23198 1-183) |
| binds | Esco2 (cohesin acetyltransferase) (protein, UniProt Q8CIB9 1-592) MMATCTPRKRKRYTLNADNDDSLLTDISSSKLRCAENLFPSPNKKHNYQSSVQKEDKSCSHQLHFPSSPLKTTENSRFSFANHSSLFKPAMSTVSFYSKEKYYLNPLERKLIRECRSICLATESGDKPIPSVTENIQRKPVCTKKNKKKQKSLTAKYQPNYKHIKSKSRNLKNSKPNQVTYKPVVDQENSCFPAKNYPNSPPRVLSQKIKPQVTLQGGAAFFVRKRNSLKKLPLEDKPLLLQKNLPEVPEGAPEAKQIPKSLLVDEKSSVKVQNARSKNEEKLRKNPSGAVVSSKECNLDKHDFPSENSLDENKTISPESVYPIFNVSSVNTKRPEEQSSVGSTACTNFLKQTNVPKNINSRDTNKGGKDQLVIDAGQKHFGTTVCKSCGMIYTASNPEDEIQHLQHHHRFLEGIKFVGWKRERVVAEFWDGKIVLVLPRDPSYAIKKVEDVQELVDLELGFQQTVPVCPDKTKTFLFIDEKRVVGCLIAEPIKQAFRVLSEPSASKECSRAWRCSDVPEPAICGISRIWVFRLKRRKRIARRLVDTVRNCFMFGCFLSTNEIAFSDPTPDGKLFATKYCNTPNFLVYNFHN |
| binds | Rcc1 (regulator of chromosome condensation) (protein, UniProt Q8VE37 1-421) MPPKRIAKRRSPPEDAIPKSKKVKVSHRSHNTEPGLVLTLGQGDVGQLGLGESVLERKKPALVPLLQDVVQAEAGGMHTVCLSQSGQVYSFGCNDEGALGRDTSVEGSEMVPGKVELQEKVVQVSAGDSHTAALTEDGRVFLWGSFRDNNGVIGLLEPMKKSMVPVQVQLDAPVVKVASGNDHLVMLTNDGDLYTLGCGEQGQLGRVPELFANRGGRQGLGRLLVPRCVLLKSRGTRGRVRFQDAFCGAYFTFAISREGHVYGFGLSNYHQLGTPGTGSCFIPQNLTSFKNSTKSWVGFSGGQHHTVCMDSEGKAYSLGRAEYGRLGLGEGAEEKSIPTLISRLPVVSSVACGASVGYAVSKDGRVFAWGMGTNYQLGTGQDEDAWSPVEMTGKQLENRVVLTVSSGGQHTVLLVKDQAQS |
| binds | CCCTC-binding factor (CTCF) (protein, UniProt Q61164 1-736) MEGEAVEAIVEESETFIKGKERKTYQRRREGGQEEDACHLPQNQTDGGEVVQDVNSSVQMVMMEQLDPTLLQMKTEVMEGTVAPEAEAAVDDTQIITLQVVNMEEQPINIGELQLVQVPVPVTVPVATTSVEELQGAYENEVSKEGLAESEPMICHTLPLPEGFQVVKVGANGEVETLEQGELPPQEDSSWQKDPDYQPPAKKTKKTKKSKLRYTEEGKDVDVSVYDFEEEQQEGLLSEVNAEKVVGNMKPPKPTKIKKKGVKKTFQCELCSYTCPRRSNLDRHMKSHTDERPHKCHLCGRAFRTVTLLRNHLNTHTGTRPHKCPDCDMAFVTSGELVRHRRYKHTHEKPFKCSMCDYASVEVSKLKRHIRSHTGERPFQCSLCSYASRDTYKLKRHMRTHSGEKPYECYICHARFTQSGTMKMHILQKHTENVAKFHCPHCDTVIARKSDLGVHLRKQHSYIEQGKKCRYCDAVFHERYALIQHQKSHKNEKRFKCDQCDYACRQERHMIMHKRTHTGEKPYACSHCDKTFRQKQLLDMHFKRYHDPNFVPAAFVCSKCGKTFTRRNTMARHADNCAGPDGVEGENGGETKKSKRGRKRKMRSKKEDSSDSEENAEPDLDDNEEEEEPAVEIEPEPEPQPQPPPPPQPVAPAPPPAKKRRGRPPGRTNQPKQNQPTAIIQVEDQNTGAIENIIVEVKKEPDAEPAEGEEEEAQAATTDAPNGDLTPEMILSMMDR |
